Assay: Total weight and weight gain of treated KO mice
Type: in vivo

For “20NHS PEG-htCBS C15S: htCBS C15S PEGylated with ME-200GS PEG (20 kDa linear NHS ester-activated PEG)”, the “weight gain vs both control groups” value (KO male and female mice, day 21 to 36) was “significantly lower” and the total weight (KO male mice, 7.5 mg/kg 3x weekly, day 21) was “about 10 g”.
